Data as given in PubChem BioAssay AID652243 (Drosophila RNAi Screening Center, 2013)
Assay: 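Fly regulators of androgen-dependent reporter output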 (primary screen). Cell system: Drosophila S2R+ cells. Reagents: long dsRNA against Drosophila genes. Timing: 72 h (48 h, then 24 h hormone). Conditions: synthetic androgen R1881 at 10 nM for 24 h. Read-out: 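Per-well raw luminescence of the androgen-driven firefly reporter and of the Renilla control, two replicates each, without normalisation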. Reading the numbers: firefly reporter light: higher = more light from androgen-responsive reporter; Renilla control light: higher = more constitutive control signal (cell number, transfection). Call rule: 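Across duplicate plates, a knock-down whose log firefly/Renilla ratio shifted a set fold down or up from the GFP/LacZ control mean was a hit; the downward cut appears as both 1.5 and 3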. Meaning of the calls: active = hit: reporter lowered or raised; inactive = no hit.
The deposit covers about 24,000 reagents; this is an unselected part of those with a known target gene and a result. Of all reagents, 246 (1%) got an active call. 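Plates not normalised; calls are printed but the firefly/Renilla ratio behind them is not deposited; fold cut for lowering reported inconsistently.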 Raw values are not corrected between plates. A plus sign joins genes that one reagent is predicted to hit. Not given: the amount of reagent.

gene | amplicon | firefly reporter light, replicate 1 | firefly reporter light, replicate 2 | Renilla control light, replicate 1 | Renilla control light, replicate 2 | Outcome
eIF4E5 | DRSC10975 | 96807 | 81901 | 1.40e6 | 1.36e6 | inactive
eIF4E5 | DRSC25877 | 3.12e5 | 3.79e5 | 8.53e5 | 7.70e5 | inactive
CG12539 | DRSC19470 | 2.93e5 | 2.27e5 | 2.85e6 | 2.54e6 | inactive
CG12539 | DRSC29569 | 2.61e5 | 3.43e5 | 5.15e5 | 5.15e5 | inactive
CG43295 | DRSC09416 | 8.03e5 | 8.47e5 | 9.96e5 | 1.08e6 | inactive
CG7518 | DRSC16253 | 63450 | 41759 | 4.82e5 | 5.37e5 | inactive
CG7518 | DRSC29146 | 8.91e5 | 9.93e5 | 1.67e6 | 1.47e6 | inactive
CG2209 | DRSC19843 | 5.71e5 | 4.89e5 | 3.65e6 | 3.89e6 | inactive
GstD2 | DRSC16684 | 1.15e5 | 75885 | 1.73e6 | 1.48e6 | inactive
GstD2 | DRSC27903 | 9.28e5 | 5.51e5 | 2.43e6 | 1.71e6 | inactive
Uros2 | DRSC16505 | 1.49e5 | 1.63e5 | 1.78e6 | 1.76e6 | inactive
CG34025 | DRSC38853 | 9.66e5 | 9.28e5 | 2.05e6 | 1.79e6 | inactive
Glut4EF | DRSC14512 | 97460 | 89743 | 1.89e6 | 2.32e6 | inactive
Glut4EF | DRSC14541 | 76581 | 88357 | 2.86e6 | 2.16e6 | inactive
Glut4EF | DRSC14542 | 2.10e5 | 1.78e5 | 2.70e6 | 1.69e6 | inactive
Glut4EF | DRSC14543 | 1069 | 1183 | 826 | – | inactive
Glut4EF | DRSC23038 | 3.40e5 | 4.80e5 | 9.89e5 | 9.90e5 | inactive
Glut4EF | DRSC28624 | 2.22e5 | 2.69e5 | 1.23e6 | 1.44e6 | inactive
Glut4EF | DRSC29228 | 4.29e5 | 4.31e5 | 9.05e5 | 8.99e5 | inactive
Glut4EF | DRSC36546 | 6.71e5 | 6.48e5 | 1.28e6 | 1.47e6 | inactive
Glut4EF | DRSC36547 | 6.37e5 | 5.94e5 | 1.71e6 | 1.72e6 | inactive
Glut4EF | DRSC36548 | 9.22e5 | 7.72e5 | 1.62e6 | 1.28e6 | inactive
Glut4EF | DRSC36549 | 7.17e5 | 6.43e5 | 1.47e6 | 1.23e6 | inactive
snRNA:U2:34ABb | DRSC37897 | 8.42e5 | 8.64e5 | 1.30e6 | 1.64e6 | inactive
Ilp3 | DRSC10168 | 3.71e5 | 3.21e5 | 3.49e6 | 2.83e6 | inactive
nAChRbeta3 | DRSC00325 | 8.56e5 | 7.05e5 | 2.73e6 | 2.02e6 | inactive
vari + Pomp | DRSC36853 | – | – | – | – | inactive
cbt | DRSC00655 | 9.89e5 | 1.38e6 | 2.14e6 | 1.43e6 | inactive
cbt | DRSC26117 | 3.22e5 | 2.76e5 | 8.65e5 | 4.92e5 | inactive
NO66 | DRSC18252 | 1.42e5 | 1.05e5 | 8.91e5 | 7.19e5 | inactive
Helz | DRSC11072 | 1.03e6 | 8.18e5 | 2.33e6 | 1.93e6 | inactive
CG15152 | DRSC02453 | 2.51e5 | 3.05e5 | 2.16e6 | 1.68e6 | inactive
eIF4E4 | DRSC09701 | 1.43e5 | 1.12e5 | 1.51e6 | 1.73e6 | inactive
CG6574 | DRSC16070 | 1.51e5 | 1.45e5 | 1.80e6 | 2.11e6 | inactive
CG31161 | DRSC16144 | 1.38e5 | 88640 | 2.77e6 | 1.81e6 | inactive
CG31161 | DRSC25099 | 6.43e5 | 7.40e5 | 7.58e5 | 7.66e5 | inactive
Pal2 | DRSC04507 | 2.42e5 | 2.70e5 | 1.83e6 | 1.97e6 | inactive
Lsd-1 | DRSC14236 | 96113 | 1.23e5 | 5.97e5 | 7.07e5 | inactive
Spn47C | DRSC07030 | 4.62e5 | 5.35e5 | 1.05e6 | 1.08e6 | inactive
Spn47C | DRSC30068 | 8.16e5 | 7.67e5 | 1.26e6 | 1.20e6 | inactive

3 entries from above, reformatted.
gene	amplicon	firefly reporter light, replicate 1	firefly reporter light, replicate 2	Renilla control light, replicate 1	Renilla control light, replicate 2	Outcome
eIF4E5	DRSC10975	96807	81901	1.40e6	1.36e6	inactive
eIF4E5	DRSC25877	3.12e5	3.79e5	8.53e5	7.70e5	inactive
CG12539	DRSC19470	2.93e5	2.27e5	2.85e6	2.54e6	inactive
